PubChem BioAssay AID743121 | NCATS – 2013
Here is a random part of about 26,000 reagents tested. 167 of them (0.63%) were called active. 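Calls are per gene from RSA p-values that are not deposited; an individual active-marked siRNA can sensitise only weakly.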 Entries without a mark were called inactive. The numbers tell different reagents against one gene apart. Not all columns of the deposit are shown.

Screen: 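Partners whose loss is lethal together with topoisomerase I blockade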 (primary screen)
System: MDA-MB-231 cells, a human breast cancer line
Knock-down reagent: single siRNA against human genes, 20 nM siRNA (0.8 pmol per well)
Timing: 120 h (drug added 48 h after transfection, read 72 h later)
Challenge: camptothecin 20 nM (about EC30) for 72 h; vehicle 0.1% DMSO in parallel plates
Read-out: 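CellTiter-Glo ATP signal, scaled to control siRNA as percent viability; sensitisation given as log2 of untreated divided by camptothecin-treated viability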
Reading the numbers: log2 vehicle/camptothecin viability: higher = stronger sensitisation to camptothecin
Hit rule: 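Each gene scored by redundant siRNA activity (RSA) over its individual siRNA ratios; a gene is called active at p < 0.001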

log2 vehicle/camptothecin viability, by gene and reagent
E2F4: #1 -0.491; #2 -0.361; #3 -0.191; #4 -0.25
GLI1: #1 -0.137; #2 -0.683; #3 -0.488; #4 -0.176
LPA: #1 -0.557; #2 -0.343; #3 -0.172; #4 -0.0165
LARS1: #1 -0.152; #2 -0.17; #3 0.303; #4 -0.184
PLPPR2: #1 -0.307; #2 1.24; #3 -0.215; #4 -0.16
LAMC1: #1 -0.384; #2 -0.416; #3 -0.346
IFNA21: #1 -0.000639; #2 -0.292; #3 0.257; #4 -0.333
SLC7A3: #1 -0.262; #2 -0.345; #3 -0.227; #4 -0.503
STK35: #1 -0.57; #2 -0.199; #3 0.038; #4 -0.11
HDAC10: #1 -0.203; #2 -0.00348; #3 -0.03; #4 -0.206

Single entries from above.
Under “log2 vehicle/camptothecin viability”, LAMC1 #1 is entered as -0.384
Entry for GLI1 #3 under “log2 vehicle/camptothecin viability”: -0.488
For “log2 vehicle/camptothecin viability”, STK35 #1 reads -0.57
Result for STK35 #4 under “log2 vehicle/camptothecin viability”: -0.11

The listing continues.
log2 vehicle/camptothecin viability, by gene and reagent
SCN3B: #1 -0.322; #2 -0.264; #3 0.0549; #4 -0.119
TMEM87A: #1 -0.473; #2 -0.158; #3 0.259
POLL: #1 -0.389; #2 -0.32; #3 -0.188
TUBA4B: #1 -0.565; #2 -0.214; #3 -0.167; #4 -0.628
BTRC: #1 -0.363; #2 0.683; #3 -0.132; #4 -0.232
HTR3D: #1 -0.0448; #2 0.311; #3 -0.0736; #4 -0.0198
ADAMTS9: #1 0.243; #2 0.265; #3 -0.0294; #4 -0.168
SAFB: #1 1.03; #2 -0.202; #3 0.0617
TMX4: #1 -0.024; #2 0.296; #3 -0.44; #4 0.334
PTPN12: #1 0.0884; #2 0.52; #3 -0.281; #4 -0.31
DGKI: #1 0.0475; #2 -0.101; #3 0.109; #4 -0.00285
KLC1: #1 0.237; #2 -0.417; #3 0.853; #4 -0.397
POLR1C: #1 0.451; #2 0.189; #3 -0.32
